These are yes or no findings as the source states them, for the method shown. Binding seen in cells or lysates may run through a third protein. Some results given as binding are weak or reduced against the parent protein; the word gives no strength.
Key:
[1] = target: c-Myc epitope-tagged Orai1 (UniProt Q96D31); assay: co-IP; lysates of co-transfected HEK293 cells (50 mM Tris pH 8.0, 150 mM NaCl, 1 % Triton X-100); immunoprecipitation with mouse anti-c-Myc 9E10 and protein G-sepharose, 16-18 h at 4 °C; blot with anti-FLAG
[2] = target: c-Myc epitope-tagged Orai2 (UniProt Q96SN7); assay: as above
[3] = target: FLAG epitope-tagged KCa3.1 (human) (UniProt O15554); assay: co-IP; lysates of co-transfected HEK293 cells (50 mM Tris pH 8.0, 150 mM NaCl, 1 % Triton X-100); immunoprecipitation with rabbit polyclonal anti-FLAG and protein A-agarose; blot with anti-myc or anti-Orai2

By UniProt entry, the sequences of proteins in these tests, tags left out.
UniProt Q96D31: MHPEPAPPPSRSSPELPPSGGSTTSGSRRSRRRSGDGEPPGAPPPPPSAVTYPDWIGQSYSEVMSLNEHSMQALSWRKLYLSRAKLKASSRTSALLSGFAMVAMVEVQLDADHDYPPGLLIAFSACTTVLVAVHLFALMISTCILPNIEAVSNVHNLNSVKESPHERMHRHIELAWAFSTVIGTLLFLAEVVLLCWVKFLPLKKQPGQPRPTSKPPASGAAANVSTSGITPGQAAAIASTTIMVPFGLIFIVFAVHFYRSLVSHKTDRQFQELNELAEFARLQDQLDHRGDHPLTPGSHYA
UniProt Q96SN7: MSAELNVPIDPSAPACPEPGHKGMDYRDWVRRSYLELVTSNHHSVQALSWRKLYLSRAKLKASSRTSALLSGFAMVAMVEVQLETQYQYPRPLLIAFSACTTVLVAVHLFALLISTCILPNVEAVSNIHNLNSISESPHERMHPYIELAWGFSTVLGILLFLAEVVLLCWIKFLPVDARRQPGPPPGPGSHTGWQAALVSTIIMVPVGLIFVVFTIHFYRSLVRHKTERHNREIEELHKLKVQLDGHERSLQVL
UniProt O15554: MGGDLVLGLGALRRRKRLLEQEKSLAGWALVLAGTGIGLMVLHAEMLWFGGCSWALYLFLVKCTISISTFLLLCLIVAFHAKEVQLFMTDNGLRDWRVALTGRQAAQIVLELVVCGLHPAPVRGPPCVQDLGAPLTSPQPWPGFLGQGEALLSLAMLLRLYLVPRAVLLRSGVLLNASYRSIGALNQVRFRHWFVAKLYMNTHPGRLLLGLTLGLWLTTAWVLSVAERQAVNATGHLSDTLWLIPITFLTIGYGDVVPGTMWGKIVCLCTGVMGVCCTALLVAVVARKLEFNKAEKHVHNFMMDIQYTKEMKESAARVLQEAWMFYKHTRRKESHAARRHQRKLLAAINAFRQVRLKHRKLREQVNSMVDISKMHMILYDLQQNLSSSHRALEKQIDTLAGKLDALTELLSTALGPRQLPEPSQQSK

“FLAG epitope-tagged KCa3.1 (from UniProt O15554 1-427)” was tested, and the binding [1] was “binds” and the binding [2] was “no binding”.

In the case of “c-Myc epitope-tagged Orai1 (from UniProt Q96D31 1-301)”, the binding [3] is reported as “binds”.

In the case of “c-Myc epitope-tagged Orai2 (from UniProt Q96SN7 1-254)”, the binding [3] is reported as “no binding”.
